Results published in article PMC8639500, “SSTP1, a Host Defense Peptide, Exploits the Immunomodulatory IL6 Pathway to Induce Apoptosis in Cancer Cells” (Frontiers in Immunology, 2021).
No constants are given. Whether binding was seen depends on the method and setting. Binding seen in cells or lysates may run through a third protein. Binding can be weak; no strength is given.

Key:
[1] = biological target: T1, SSTP1 (Temporin 1IDau1), biotin-labelled (Indosylvirana aurantiaca); assay: pull-down; biotin-labelled peptide incubated with HSC-4 cell lysate (1 mg protein) for 1 hour at 4°C, then overnight with streptavidin Dynabeads; buffer 0.025 M Tris, 0.15 M NaCl, 0.001 M EDTA, 0.5% NP40, 0.5% Triton X 100, 5% glycerol, pH 7.4; western blot for IL6Rα; only the target purified
T1 sequence (peptide, biotin (labelled with D-Biotin Succinimidyl ester; position not stated)): FLPLLISALTSLFPKLGK

[2] = biological target: IL6Rα (human (endogenous in HSC-4)); assay: FRET or BRET; HSC-4 cells treated with biotin-labelled SSTP1 (10 µM) for 30 minutes, washed, fixed and stained for IL6Rα; streptavidin-Alexa Fluor-488 and anti-mouse Alexa Fluor-555 as FRET pair; only the binder purified

IL6Rα (human (endogenous in HSC-4)) (receptor)
binding [1]: binds

B1: SSTP1 (Temporin 1IDau1), biotin-labelled (peptide)
peptide: FLPLLISALTSLFPKLGK
modifications: biotin (labelled with D-Biotin Succinimidyl ester; position not stated)
binding [2]: binds
